# PMC7463352
# Sequences of proteins named here, by UniProt entry; tags and fusion partners are left off. Residues count along the entry.
# UniProt P11362, residues 22-376: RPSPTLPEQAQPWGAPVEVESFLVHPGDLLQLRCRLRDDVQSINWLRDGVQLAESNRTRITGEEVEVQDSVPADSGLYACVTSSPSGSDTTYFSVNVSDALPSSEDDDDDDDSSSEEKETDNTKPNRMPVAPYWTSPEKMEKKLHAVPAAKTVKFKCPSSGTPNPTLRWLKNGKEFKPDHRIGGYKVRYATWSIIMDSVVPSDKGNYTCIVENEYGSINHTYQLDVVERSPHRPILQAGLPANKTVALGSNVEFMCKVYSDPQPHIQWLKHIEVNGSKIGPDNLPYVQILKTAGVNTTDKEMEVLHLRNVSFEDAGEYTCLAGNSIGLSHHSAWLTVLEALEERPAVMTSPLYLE
# UniProt P09382: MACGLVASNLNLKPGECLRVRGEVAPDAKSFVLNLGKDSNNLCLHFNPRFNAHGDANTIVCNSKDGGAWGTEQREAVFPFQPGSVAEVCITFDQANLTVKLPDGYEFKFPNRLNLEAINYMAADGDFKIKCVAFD
# No constants are given. Whether binding was seen depends on the method and setting. Some entries that bind do so weakly or less than the wild type.
# Biological target: Fully glycosylated extracellular domain of FGFR1 IIIc fused to the Fc fragment of human IgG1 (UniProt P11362)
# Assay: BLI; competitive BLI; FGFR1‐Fc (30 μg/mL) immobilised on ProtA biosensors, left untreated or incubated with saturating B‐Fc or T‐Fc; then FGF1, galectin‐1 or galectin‐3 (50 μg/mL) with or without B‐Fc or T‐Fc (0.3 μM); PBS; both purified
substance,measurement,value
Recombinant galectin‐1 (from UniProt P09382 1-135),binding,binds
